Results as given in patent publication US20110059977A1 (priority 2006, published 2011).
Converted amounts (≈) assume the structure as drawn.

Tested on: M. tuberculosis H37Rv
Assay: In vitro tests on Mycobacterium tuberculosis (MIC in 7H11 agar medium)
Conditions: 21-30 days at 37° C.

## CO[C@H]1/C=C/O[C@@]2(C)Oc3c(C)c(O)c4c(O)c(c(/C=N/N5CCN(C)CC5)c(O)c4c3C2=O)NC(=O)/C(C)=C\C=C\[C@H](C)[C@H](O)[C@@H](C)[C@@H](O)[C@@H](C)[C@H](OC(C)=O)[C@@H]1C [rifampicin]
  MIC on Mycobacterium tuberculosis: 0.1 µg/mL (≈ 0.122 µM)
